# The list shows a part of the results.
# B1: PX9916F-bfa-443-24-443 (Bacteroides fragilis) (protein)
# chain: DIRPVGSVIPQTAEEYRALLARAYLNVPNDRGLACLRSDEMLVNDNEYDRNSYGDIERWNDVSPFPGTSQFTWSNFYNVLFIANQVIESQKEITEGTPEVVNQLVGEAHLLRAYLHFVLVNLHGQPYTKSGALNSKSIPLKLDTDLEKTLGRNTVEEVYTSILSDIEHARELINKEKWETVFSYRFNVLSVDALQSRVSLYMGAWPKCLESAEAVLAKKSVLVDMNETPLALPNHFESVESITALEQVMGSSVNNAVWVPATFLALYQEGDKRLAAYFAAPDENGNRKSSKGGKREFSCTFRVGELYLNAAEAAANMDKLPHARMRLLELMRKRYTPEAYDKKENAVNVMDKNALISEILNERARELAFEGHRWFDLRRTTRPRMVKVLQGKTYILEQDDPRYTIPIPRDAIAANPGLAN
# What was measured:
# Test in all cases: glycan array binding signal (z-score within array); higher = stronger binding
# Settings in all cases: glycan notation: IUPAC condensed, linker removed
# [1] = target: Neu5Ac(a2-3)Gal(b1-4)GlcNAc(b1-6)GalNAc
# How it was run: (§1)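 Arrays were curated from the Consortium for Functional Glycomics database, 3228 in total, and kept only where the protein sequence was available. Binding is expressed as a within-array Z-score. This score was averaged across arrays of the same protein sequence at different concentrations or buffers and across linkers, and negative values can be read as non-binding.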
# [2] = target: Neu5Ac(a2-3)Gal(b1-4)GlcNAc(b1-6)[Gal(b1-3)]GalNAc
# How it was run: as §1
# [3] = target: Neu5Ac(a2-3)Gal(b1-4)GlcNAc(b1-6)[Neu5Ac(a2-3)Gal(b1-3)]GalNAc
# How it was run: as §1
# [4] = target: Neu5Ac(a2-3)Gal(b1-4)GlcNAc6S
# How it was run: as §1
# [5] = target: Neu5Ac(a2-3)Gal(b1-4)[Fuc(a1-3)]GlcNAc
# How it was run: as §1
# [6] = target: Neu5Ac(a2-3)Gal(b1-4)[Fuc(a1-3)]GlcNAc(b1-2)Man
# How it was run: as §1
# [7] = target: Neu5Ac(a2-3)Gal(b1-4)[Fuc(a1-3)]GlcNAc(b1-3)Gal
# How it was run: as §1
# [8] = target: Neu5Ac(a2-3)Gal(b1-4)[Fuc(a1-3)]GlcNAc(b1-3)Gal(b1-4)GlcNAc
# How it was run: as §1
# [9] = target: Neu5Ac(a2-3)Gal(b1-4)[Fuc(a1-3)]GlcNAc(b1-3)Gal(b1-4)[Fuc(a1-3)]GlcNAc(b1-3)Gal(b1-4)[Fuc(a1-3)]GlcNAc
# How it was run: as §1
# [10] = target: Neu5Ac(a2-3)Gal(b1-4)[Fuc(a1-3)]GlcNAc(b1-3)GalNAc
# How it was run: as §1
# [11] = target: Neu5Ac(a2-3)Gal(b1-4)[Fuc(a1-3)]GlcNAc(b1-6)[Gal(b1-3)]GalNAc
# How it was run: as §1
# [12] = target: Neu5Ac(a2-3)Gal(b1-4)[Fuc(a1-3)]GlcNAc(b1-6)[Neu5Ac(a2-3)Gal(b1-3)]GalNAc
# How it was run: as §1
# [13] = target: Neu5Ac(a2-3)Gal(b1-4)[Fuc(a1-3)]GlcNAc6S
# How it was run: as §1
# [14] = target: Neu5Ac(a2-3)Gal6S(b1-4)GlcNAc
# How it was run: as §1
# [15] = target: Neu5Ac(a2-3)Gal6S(b1-4)[Fuc(a1-3)]GlcNAc
# How it was run: as §1
# [16] = target: Neu5Ac(a2-3)GalNAc
# How it was run: as §1
# [17] = target: Neu5Ac(a2-3)GalNAc(b1-4)GlcNAc
# How it was run: as §1
# [18] = target: Neu5Ac(a2-3)[GalNAc(b1-4)]Gal(b1-4)Glc
# How it was run: as §1
# [19] = target: Neu5Ac(a2-3)[GalNAc(b1-4)]Gal(b1-4)GlcNAc
# How it was run: as §1
# [20] = target: Neu5Ac(a2-3)[GalNAc(b1-4)]Gal(b1-4)GlcNAc(b1-3)GalNAc
# How it was run: as §1
# [21] = target: Neu5Ac(a2-3)[Neu5Ac(a2-6)]GalNAc
# How it was run: as §1
# [22] = target: Neu5Ac(a2-6)Gal
# How it was run: as §1
# [23] = target: Neu5Ac(a2-6)Gal(b1-3)GlcNAc(b1-3)[Gal(b1-4)GlcNAc(b1-6)]Gal(b1-4)Glc
# How it was run: as §1
# [24] = target: Neu5Ac(a2-6)Gal(b1-4)Glc
# How it was run: as §1
# [25] = target: Neu5Ac(a2-6)Gal(b1-4)GlcNAc
# How it was run: as §1
# [26] = target: Neu5Ac(a2-6)Gal(b1-4)GlcNAc(b1-2)Man
# How it was run: as §1
# [27] = target: Neu5Ac(a2-6)Gal(b1-4)GlcNAc(b1-2)Man(a1-3)Man(b1-4)GlcNAc(b1-4)GlcNAc
# How it was run: as §1
# [28] = target: Neu5Ac(a2-6)Gal(b1-4)GlcNAc(b1-2)Man(a1-3)[Gal(b1-4)GlcNAc(b1-2)Man(a1-6)]Man(b1-4)GlcNAc(b1-4)GlcNAc
# How it was run: as §1
# [29] = target: Neu5Ac(a2-6)Gal(b1-4)GlcNAc(b1-2)Man(a1-3)[GlcNAc(b1-2)Man(a1-6)]Man(b1-4)GlcNAc(b1-4)GlcNAc
# How it was run: as §1
# [30] = target: Neu5Ac(a2-6)Gal(b1-4)GlcNAc(b1-2)Man(a1-3)[GlcNAc(b1-4)][Neu5Ac(a2-6)Gal(b1-4)GlcNAc(b1-2)Man(a1-6)]Man(b1-4)GlcNAc(b1-4)GlcNAc
# How it was run: as §1
# [31] = target: Neu5Ac(a2-6)Gal(b1-4)GlcNAc(b1-2)Man(a1-3)[Man(a1-6)]Man(b1-4)GlcNAc(b1-4)GlcNAc
# How it was run: as §1
binder,measurement,setting,value
B1,glycan array binding signal (z-score),[1],-0.155
same,glycan array binding signal (z-score),[2],0.222
same,glycan array binding signal (z-score),[3],-0.336
same,glycan array binding signal (z-score),[4],0.134
same,glycan array binding signal (z-score),[5],-1.21
same,glycan array binding signal (z-score),[6],0.198
same,glycan array binding signal (z-score),[7],0.01
same,glycan array binding signal (z-score),[8],-0.581
same,glycan array binding signal (z-score),[9],0.186
same,glycan array binding signal (z-score),[10],0.885
same,glycan array binding signal (z-score),[11],-0.423
same,glycan array binding signal (z-score),[12],0.459
same,glycan array binding signal (z-score),[13],0.193
same,glycan array binding signal (z-score),[14],-1.25
same,glycan array binding signal (z-score),[15],-0.389
same,glycan array binding signal (z-score),[16],0.679
same,glycan array binding signal (z-score),[17],-0.796
same,glycan array binding signal (z-score),[18],-0.64
same,glycan array binding signal (z-score),[19],-0.676
same,glycan array binding signal (z-score),[20],-0.884
same,glycan array binding signal (z-score),[21],-0.772
same,glycan array binding signal (z-score),[22],0.733
same,glycan array binding signal (z-score),[23],0.052
same,glycan array binding signal (z-score),[24],-0.418
same,glycan array binding signal (z-score),[25],-0.543
same,glycan array binding signal (z-score),[26],0.218
same,glycan array binding signal (z-score),[27],-0.432
same,glycan array binding signal (z-score),[28],0.156
same,glycan array binding signal (z-score),[29],-0.739
same,glycan array binding signal (z-score),[30],-1.44
same,glycan array binding signal (z-score),[31],0.549

# Random excerpt: two entries already listed.
binder,measurement,setting,value
B1,glycan array binding signal (z-score),[24],-0.418
same,glycan array binding signal (z-score),[18],-0.64
